These are yes or no findings as the source states them, for the method shown. Binding seen in cells or lysates may run through a third protein. Binding can be weak; no strength is given. Where a sequence is shown, tags or fusion partners need not be part of it.
Molecular target: T1, Cdca9-Flag (zebrafish) (UniProt P86347)
T1 sequence: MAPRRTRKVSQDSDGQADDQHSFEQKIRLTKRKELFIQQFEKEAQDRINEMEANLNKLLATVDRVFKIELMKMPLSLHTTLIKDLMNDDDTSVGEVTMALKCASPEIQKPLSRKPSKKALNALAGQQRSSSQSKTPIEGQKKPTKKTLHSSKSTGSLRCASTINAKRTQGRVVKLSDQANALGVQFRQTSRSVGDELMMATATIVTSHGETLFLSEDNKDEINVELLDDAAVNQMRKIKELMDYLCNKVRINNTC
Test: co-IP

| binding | Substance |
| --- | --- |
| binds | Birc5b-GFP (zebrafish) |
| binds | Birc5b |

— article doi:10.1101/2024.08.19.608573
